Measured values taken from article PMC6199744, “Development of Chemical Proteomics for the Folateome and Analysis of the Kinetoplastid Folateome” (ACS Infectious Diseases, 2018).
The source gives many values for each of these; only a part stands here.

Tested on: L. major lysate proteins
Assay: Multitargeted bead mixture chemoproteomics, single concentration competition, proteome-wide
Type: binding
Details: vs vehicle control

For `Nc1nc2c(c(=O)[nH]1)N(C=O)C(CNc1ccc(C(=O)N[C@@H](CCC(=O)O)C(=O)O)cc1)CN2` (stereo partly drawn) [LEU, leucovorin], the fold change (protein LMJF.15.0240 NONSPECIFIC LIPID-TRANSFER PROTEIN, PUTATIVE,STEROL CARRIER PROTEIN, PUTATIVE) was 0.87, the fold change (protein LMJF.15.0950 40S RIBOSOMAL PROTEIN S3, PUTATIVE) was 0.97 and the fold change (protein LMJF.16.0440 FUCOSE KINASE, PUTATIVE) was 0.96. It also gave a fold change (protein LMJF.16.0550 OROTIDINE-5-PHOSPHATE DECARBOXYLASE/OROTATE PHOSPHORIBOSYLTRANSFERASE, PUTATIVE) of 0.88, a fold change (protein LMJF.18.0700 HYPOTHETICAL PROTEIN, CONSERVED) of 0.8 and a fold change (protein LMJF.18.1280 HYPOTHETICAL PROTEIN, CONSERVED) of 0.9. It also gave a fold change (protein LMJF.19.0060 40S RIBOSOMAL PROTEIN S2) of 1.11, a fold change (protein LMJF.19.0490 HYPOTHETICAL PROTEIN, CONSERVED) of 0.87 and a fold change (protein LMJF.19.0710 GLYCOSOMAL MALATE DEHYDROGENASE) of 0.96. The fold change (protein LMJF.21.0250 HEXOKINASE, PUTATIVE) was 0.88, the fold change (protein LMJF.21.0760 […]-ATP-ASE SUBUNIT 5, PUTATIVE,19S […]) was 0.7 and the fold change (protein LMJF.21.0800 HY[…], CONSERVED) was 0.49. It also gave a fold change (protein LMJF.21.1250 ADENYLATE KINASE, PUTATIVE) of 0.9, a fold change (protein LMJF.21.1770 ATP SYNTHASE F1 SUBUNIT GAMMA PROTEIN, PUTATIVE) of 0.92 and a fold change (protein LMJF.21.1860 BETA TUBULIN) of 0.93. For the same molecule, the fold change (protein LMJF.22.0300 HYPOTHETICAL PROTEIN, CONSERVED) was 0.68, the fold change (protein LMJF.22.0410 HY[…], CONSERVED) was 0.8 and the fold change (protein LMJF.22.0620 […] SUBUNIT 5, PUTATIVE) was 0.78. For the same molecule, the fold change (protein LMJF.22.0990 HYPOTHETICAL PROTEIN, CONSERVED) was 1, the fold change (protein LMJF.22.1290 RIBONUCLEOSIDE-DIPHOSPHATE REDUCTASE SMALL CHAIN, PUTATIVE) was 0.79 and the fold change (protein LMJF.22.1500 ATP-DEPENDENT DEAD/H RNA HELICASE, PUTATIVE) was 1.16. The fold change (protein LMJF.23.0380 ATP-BINDING CASSETTE PROTEIN SUBFAMILY G, MEMBER 5, PUTATIVE) was 0.96, the fold change (protein LMJF.23.0830 NA/H ANTIPORTER-LIKE PROTEIN) was 0.74 and the fold change (protein LMJF.23.1350 ACETYLTRANSFERASE-LIKE PROTEIN) was 0.86. For the same molecule, the fold change (protein LMJF.25.1210 HY[…], CONSERVED) was 1.01, the fold change (protein LMJF.26.0280 HYPOTHETICAL PROTEIN, CONSERVED) was 0.94 and the fold change (protein LMJF.27.0420 RIBOKINASE, PUTATIVE) was 0.89. For the same molecule, the fold change (protein LMJF.27.1810 GLYCOSOMAL PHOSPHOENOLPYRUVATE CARBOXYKINASE, PUTATIVE) was 1.04, the fold change (protein LMJF.27.2630 ATP-DEPENDENT CLP PROTEASE SUBUNIT, HEAT SHOCK PROTEIN 78 (HSP78), PUTATIVE) was 0.6 and the fold change (protein LMJF.28.2250 GLYCOSOMAL MEMBRANE PROTEIN-LIKE PROTEIN) was 0.99. For the same molecule, the fold change (protein LMJF.29.0060 TRYPTOPHANYL-TRNA SYNTHETASE, PUTATIVE) was 0.94, the fold change (protein LMJF.29.1550 HYPOTHETICAL PROTEIN, CONSERVED) was 0.47 and the fold change (protein LMJF.29.1720 HISTONE H2A, PUTATIVE) was 0.92. For the same molecule, the fold change (protein LMJF.29.1830 DIHYDROLIPOAMIDE DEHYDROGENASE, PUTATIVE) was 0.85, the fold change (protein LMJF.29.2440 HYPOTHETICAL PROTEIN, CONSERVED) was 0.75 and the fold change (protein LMJF.30.1010 UBIQUITIN FUSION DEGRADATION PROTEIN 2, PUTATIVE,UBIQUITIN CONJUGATION FACTOR E4 B, PUTATIVE) was 0.88. For the same molecule, the fold change (protein LMJF.30.1940 SUCCINYL-COA:3-KETOACID-COENZYME A TRANSFERASE- LIKE PROTEIN) was 0.93, the fold change (protein LMJF.30.3110 S-ADENOSYLMETHIONINE DECARBOXYLASE) was 0.85 and the fold change (protein LMJF.30.3190 3-HYDROXY-3-METHYLGLUTARYL-COA REDUCTASE) was 0.78. The fold change (protein LMJF.30.3390 CAS/CSE/IMPORTIN DOMAIN PROTEIN, PUTATIVE) was 0.83, the fold change (protein LMJF.31.1800 AMINO ACID PERMEASE) was 0.79 and the fold change (protein LMJF.31.2640 2-OXOGLUTARATE DEHYDROGENASE, E3 COMPONENT, […]-LIKE PROTEIN) was 0.81. For the same molecule, the fold change (protein LMJF.31.2650 ACETOIN DEHYDROGENASE E3 COMPONENT-LIKE PROTEIN) was 0.82, the fold change (protein LMJF.31.2970 ACETYL-COA CARBOXYLASE, PUTATIVE) was 0.78 and the fold change (protein LMJF.31.3130 […]-COA CARBOXYLASE BIOTINYLATED […]-LIKE PROTEIN) was 0.94. It also gave a fold change (protein LMJF.32.0390 PROTEASOME REGULATORY NON-ATP-ASE SUBUNIT 8, PUTATIVE,26S PROTEASOME REGULATORY SUBUNIT, PUTATIVE) of 0.83, a fold change (protein LMJF.32.3640 HYPOTHETICAL PROTEIN, CONSERVED) of 0.84 and a fold change (protein LMJF.33.0830 2,4-DIENOYL-COA REDUCTASE FADH1, PUTATIVE) of 0.92. It also gave a fold change (protein LMJF.33.1030 HYPOTHETICAL PROTEIN, CONSERVED) of 0.75, a fold change (protein LMJF.33.1610 PEPTIDASE M20/M25/M40, PUTATIVE) of 0.82 and a fold change (protein LMJF.34.0010 HYPOTHETICAL PROTEIN, CONSERVED) of 0.92. For the same molecule, the fold change (protein LMJF.34.3740 SERINE PALMITOYLTRANSFERASE-LIKE PROTEIN) was 1.01, the fold change (protein LMJF.35.1880 60S RIBOSOMAL PROTEIN L5, PUTATIVE) was 1.04 and the fold change (protein LMJF.35.2150 HYPOTHETICAL PROTEIN, CONSERVED) was 0.94. The fold change (protein LMJF.35.2330 HYPOTHETICAL PROTEIN, CONSERVED) was 0.73, the fold change (protein LMJF.35.4550 HYPOTHETICAL PROTEIN, CONSERVED) was 0.81 and the fold change (protein LMJF.35.4760 HYPOTHETICAL PROTEIN, CONSERVED) was 0.8. The fold change (protein LMJF.35.4860 HYPOTHETICAL PROTEIN, CONSERVED) was 0.72, the fold change (protein LMJF.35.5040 polyadenylate-binding protein 1) was 0.86 and the fold change (protein LMJF.36.0250 EIF3-INTERACTING PROTEIN-LIKE PROTEIN) was 0.83. The fold change (protein LMJF.36.0320 PROTEASOME BETA 2 SUBUNIT, PUTATIVE) was 0.89, the fold change (protein LMJF.36.1670 HYPOTHETICAL PROTEIN, CONSERVED) was 0.8 and the fold change (protein LMJF.36.2160 HY[…], CONSERVED) was 1.13. For the same molecule, the fold change (protein LMJF.36.3760 60S RIBOSOMAL PROTEIN L10A, PUTATIVE) was 1.14, the fold change (protein LMJF.36.4450 MITOCHONDRIAL INTERMEDIATE PEPTIDASE, PUTATIVE,METALLO-PEPTIDASE, CLAN MA(E), FAMILY M3) was 0.92 and the fold change (protein LMJF.36.5100 HY[…], CONSERVED) was 1.02.
